# Measured values from PubChem BioAssay AID504444 (National Center for Advancing Translational Sciences (NCATS), 2011).
# The whole screen tested about 360,000 compounds, of which about 7,500 (2.1%) were called active. Inconclusive means that the source gave no clear call. Such entries were picked first, then a sample of the others. The call rests on the fitted dose curve; in most records, active means well fitted inhibition curve with a large enough effect; inconclusive means small, poorly fitted or top-dose-only effect, or effect the other way; inactive means flat fitted curve, though single readings scatter. Potencies of inconclusive entries are doubtful fits and often do not repeat.
# Assay: Nrf2 qHTS screen for inhibitors; further: nearly all actives have a fitted effect of over 60% in size
# Settings: A549 ARE-Fluc reporter, luciferase luminescence, 18-24 h; activity change, negative = inhibition: at 46 µM (top of the series)
# Method in brief: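 In this cell-based qHTS, ARE-driven firefly luciferase in A549 cells reports Nrf2 activity; the luminescent signal after BugLite lysis is the measured value, with a prior CellTiter-Fluor read for cell health.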
# On the % scale 0 is the no-effect control and ±100 the full control effect; potency means the concentration at half of the fitted maximal effect.
Compound,Potency,"activity change, negative = inhibition"
Cc1ccc(O)c(CNc2nc3ccccc3[nH]2)c1,"inconclusive: 16.4 µM [activator, partial curve]",–
O=C(c1ccc(Oc2ccccc2)cc1)C1CCCN(C(=O)c2cnccn2)C1 (stereo unspecified),–,inactive: -19.3%
Cc1nn(C)c(Oc2ccc(Cl)cc2)c1C=O,"inconclusive: 25.9 µM [falling, single point]",–
COc1ccc(C(=O)OCC(=O)N2CCCC2=O)c(OC)c1,"inconclusive: 20.6 µM [activator, single point]",–
CCCCOc1ccc(Cl)cc1Nc1nc(NCCO)nc(N2CCCC2)n1,"inconclusive: 29.1 µM [falling, single point]",–
COc1ccc(NC(=O)COc2cc(C)cc(C)c2)cc1S(=O)(=O)N1CCCCC1,"inconclusive: 18.4 µM [falling, single point]",–
CC(=O)Nc1ccc(Nc2nc3ccccc3nc2NS(=O)(=O)c2ccccc2)cc1,"inconclusive: 20.6 µM [falling, single point]",–
Cn1c2ccccc2c2ncn(Cc3ccc(F)cc3)c(=O)c21,"inconclusive: 2.91 µM [falling, partial curve, poor fit]",–
COc1ccc(C)cc1NC(=O)CN1c2cccc3cccc(c23)S1(=O)=O,"inconclusive: 20.6 µM [falling, single point]",–
CN(C)C=NC(=O)c1cc(C(=O)c2ccc(C(C)(C)C)cc2)c[nH]1,"inconclusive: 9.2 µM [activator, partial curve]",–
Cc1ccc2[nH]c3c(c2c1)CCCC3NC(=O)CCl (stereo unspecified),"inconclusive: 29.1 µM [falling, single point]",–
CC(=O)c1ccc(N2CCN(C(=O)c3ccc(Cl)c(S(=O)(=O)NC4CC4)c3)CC2)c(F)c1,–,inactive: -4.28%
Cc1ccccc1Nc1ncnc2c1cnn2Cc1ccccc1,"inconclusive: 23.1 µM [falling, single point]",–
Fc1ccc(Br)cc1C1C=C(c2ccc(Br)s2)Nc2ncnn21 (stereo unspecified),"inconclusive: 25.9 µM [falling, partial curve, poor fit]",–
Cc1cccc(/N=C/c2ccccn2)n1,"inconclusive: 29.1 µM [activator, single point]",–
Cc1ccc(N2C(=O)CC(c3ccccc3F)C3=C2COC3=O)cc1Cl (stereo unspecified),"inconclusive: 4.11 µM [activator, full curve, poor fit]",–
COc1ccc(C)cc1-n1nnnc1SCc1nc2ccccc2s1,"inconclusive: 2.59 µM [activator, full curve, poor fit]",–
COc1ccc(OC)c(C(=O)CC2OC(=O)c3ccccc32)c1 (stereo unspecified),–,inactive: -5.49%
COc1ccc(CNC(=O)c2cnc3sc(N4CCC(C)CC4)nn3c2=O)c(OC)c1,"inconclusive: 7.31 µM [activator, partial curve, poor fit]",–
Cc1c(C)n(Cc2ccccc2)c2ccc(C(=O)NCc3ccccc3F)cc12,"inconclusive: 23.1 µM [activator, partial curve, poor fit]",–
Cc1ccc(-c2nc3ccccc3[nH]2)cc1NC(=O)COc1ccccc1[N+](=O)[O-],"inconclusive: 16.4 µM [falling, partial curve]",–

# Complete entries, quoted from the list. Order of values: Potency | activity change, negative = inhibition
# Cc1ccc(O)c(CNc2nc3ccccc3[nH]2)c1 as listed: inconclusive: 16.4 µM [activator, partial curve] | –
# COc1ccc(NC(=O)COc2cc(C)cc(C)c2)cc1S(=O)(=O)N1CCCCC1 as listed: inconclusive: 18.4 µM [falling, single point] | –

# (further entries)

Compound,Potency,"activity change, negative = inhibition"
O=C(c1cnn(-c2cccc(F)c2)c1-n1cccc1)N1CCN(c2ccccc2F)CC1,–,inactive: -20.5%
CCCCOc1ccc(-c2cnc3ccccc3n2)cc1,"inconclusive: 0.411 µM [activator, full curve, poor fit]",–
O=[N+]([O-])c1ccccc1/C=C/CN1CCCCC1CO (stereo unspecified),"inconclusive: 0.0103 µM [falling, partial curve, poor fit]",–
O=C(Nc1ccc2nc(-c3cccs3)c(-c3cccs3)nc2c1)N1CCOCC1,"inconclusive: 29.1 µM [falling, partial curve, poor fit]",–
COc1ccc(-n2nc3c(N4CCC(C(=O)NCc5cccc(F)c5)CC4)nnc(C)c3c2C)cc1,"inconclusive: 29.1 µM [falling, single point]",–
O=S(=O)(c1ccccc1)N1CCCCC1CCc1ccccc1 (stereo unspecified),"inconclusive: 32.6 µM [falling, single point]",–
CCCC(=O)N(C1CC(C)C(C#N)(C#N)C1(C#N)C#N)N(C)C (stereo unspecified),"inconclusive: 29.1 µM [falling, single point]",–
C[C@H](CO)N1C[C@H](C)[C@@H](CN(C)S(=O)(=O)c2ccc(F)cc2)Oc2c(NC(=O)Nc3ccc4c(c3)OCO4)cccc2C1=O,"inconclusive: 18.4 µM [falling, partial curve]",–
CC(=O)c1ccc(NC(=O)c2ccc(S(=O)(=O)N3CCCC3)cc2)cc1,–,inactive: 6.28%
COc1ccc(-c2nc(C#N)c(NCc3ccco3)o2)cc1,"inconclusive: 3.66 µM [activator, partial curve, poor fit]",–
COc1cc2nc(CN3CCN(S(=O)(=O)c4ccc(C)c(C)c4)CC3)[nH]c(=O)c2cc1OC,"inconclusive: 5.8 µM [falling, full curve, poor fit]",–
CC1=NN(/C(=N\c2nnc(C)s2)Nc2ccccc2)[C@H](c2cccc3ccccc23)S1,"inconclusive: 29.1 µM [falling, single point]",–
CC(=O)c1ccc(NS(=O)(=O)c2ccc(C)cc2)cc1,–,inactive: -10.6%
CCC(C)NS(=O)(=O)c1ccc(NS(=O)(=O)c2ccc(F)cc2)cc1 (stereo unspecified),"inconclusive: 29.1 µM [falling, single point]",–
CC1=C(C(=O)NCc2ccccc2Cl)C2(CCCCCC2)OC1=O,–,inactive: -12.8%
CS(=O)(=O)N(CC(=O)Nc1ccccc1Sc1ccccc1)c1ccc(F)cc1,"inconclusive: 23.1 µM [falling, single point]",–
Fc1ccc(-c2nnc(CN3CCN(c4ncc(C(F)(F)F)cc4Cl)CC3)o2)cc1,"inconclusive: 20.6 µM [falling, single point]",–
O=S(=O)(c1ccc2c(c1)CCCN2)N1CCCC2CCCCC21 (stereo unspecified),"inconclusive: 18.4 µM [falling, partial curve, poor fit]",–
CCOc1ccc(N2CC(C(=O)Nc3ccc(OC)c(S(=O)(=O)N4CCCCC4)c3)CC2=O)cc1 (stereo unspecified),–,inactive: -6.96%
CN(C)/N=C/c1ccc(OS(=O)(=O)c2ccccc2)cc1,"inconclusive: 18.4 µM [activator, single point]",–
